Data taken from paper PMC7588454.
Results are given in words; binding and its absence hold for the method and conditions named. Binding seen in cells or lysates may run through a third protein. Some entries that bind do so weakly or less than the wild type.

The chains behind the UniProt entries cited, without tags or fusion partners. Residues count along the entry.
UniProt Q9JHJ8, residues 44-322: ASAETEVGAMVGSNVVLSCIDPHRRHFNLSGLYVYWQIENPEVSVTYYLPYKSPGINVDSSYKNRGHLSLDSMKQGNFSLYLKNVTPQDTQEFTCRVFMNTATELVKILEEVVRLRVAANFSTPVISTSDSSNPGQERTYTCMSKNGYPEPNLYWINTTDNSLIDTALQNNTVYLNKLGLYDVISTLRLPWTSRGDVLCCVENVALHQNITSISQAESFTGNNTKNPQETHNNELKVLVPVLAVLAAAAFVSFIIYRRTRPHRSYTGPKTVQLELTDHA
UniProt P10923, residues 17-294: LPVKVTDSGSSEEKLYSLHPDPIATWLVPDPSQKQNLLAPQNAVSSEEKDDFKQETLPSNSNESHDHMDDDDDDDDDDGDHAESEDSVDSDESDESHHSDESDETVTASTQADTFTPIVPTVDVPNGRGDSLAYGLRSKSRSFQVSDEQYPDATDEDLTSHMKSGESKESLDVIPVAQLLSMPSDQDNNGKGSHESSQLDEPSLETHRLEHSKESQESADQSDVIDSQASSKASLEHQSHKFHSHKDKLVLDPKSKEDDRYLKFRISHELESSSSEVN

Experiments:
[1] = biological target: ICOSL expressed from a plasmid in 4T1 cells (4T1-ICOSL) (not stated (human or mouse cDNA cloned)) (UniProt Q9JHJ8); experiment: proximity ligation; primary tumor sections of 4T1 and 4T1-ICOSL tumors grown in BALB/c mice; goat anti-OPN and rabbit anti-ICOSL, Duolink kit
[2] = biological target: mouse ICOSL, endogenous in tissue (mouse (endogenous in kidney)) (UniProt Q9JHJ8); experiment: proximity ligation; kidney sections of C57BL/6J and MRL-lpr mice; goat anti-OPN and rabbit anti-ICOSL, Duolink kit; OPN-/- and ICOSL-/- mice as negative controls

binding [1]: binds
binding [2]: binds
Substance: mouse OPN, endogenous in tissue (from UniProt P10923 17-294)
